Measurements reported in PubChem BioAssay AID743121 (NCATS, 2013)
Screen: 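Partners whose loss is lethal together with topoisomerase I blockade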 (primary screen). Cells: MDA-MB-231 cells, a human breast cancer line. Knock-down reagent: single siRNA against human genes, 20 nM siRNA (0.8 pmol per well). Timing: 120 h (drug added 48 h after transfection, read 72 h later). Treatment: camptothecin 20 nM (about EC30) for 72 h; vehicle 0.1% DMSO in parallel plates. Measured: 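CellTiter-Glo ATP signal, scaled to control siRNA as percent viability; sensitisation given as log2 of untreated divided by camptothecin-treated viability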. Reading the numbers: log2 vehicle/camptothecin viability: higher = stronger sensitisation to camptothecin; viability with camptothecin and viability without drug: higher = more viable cells. Call rule: 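Each gene scored by redundant siRNA activity (RSA) over its individual siRNA ratios; a gene is called active at p < 0.001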.
The deposit covers about 26,000 reagents; below is a random part of them. 167 of them (0.63%) were called active. 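Calls are per gene from RSA p-values that are not deposited; an individual active-marked siRNA can sensitise only weakly.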 The numbers tell different reagents against one gene apart.

no.	target gene	siRNA no.	log2 vehicle/camptothecin viability	viability with camptothecin (% of control)	viability without drug (% of control)	outcome
1	HIF3A (GeneID 64344)	1	-0.0694	50.2	47.8	inactive
2	HIF3A (GeneID 64344)	2	0.477	43.6	60.7	inactive
3	HIF3A (GeneID 64344)	3	-0.389	54.4	41.5	inactive
4	HIF3A (GeneID 64344)	4	-0.25	103	86.8	inactive
5	SPSB2 (GeneID 84727)	1	-0.0515	108	104	inactive
6	SPSB2 (GeneID 84727)	2	0.791	19.7	34.1	inactive
7	SPSB2 (GeneID 84727)	3	-0.14	70.9	64.4	inactive
8	LTB4R (GeneID 1241)	1	0.343	47	59.6	inactive
9	LTB4R (GeneID 1241)	2	-0.111	75.1	69.6	inactive
10	LTB4R (GeneID 1241)	3	-0.0232	105	103	inactive
11	LTB4R (GeneID 1241)	4	-0.267	81.2	67.4	inactive
12	LTB4R (GeneID 1241)	5	-0.307	80.6	65.1	inactive
13	PCDHB1 (GeneID 29930)	1	-0.315	58.8	47.3	inactive
14	PCDHB1 (GeneID 29930)	2	0.00852	70.5	70.9	inactive
15	PCDHB1 (GeneID 29930)	3	-0.11	86.8	80.5	inactive
16	PCDHB1 (GeneID 29930)	4	-0.0271	87	85.4	inactive
17	SETMAR (GeneID 6419)	1	0.663	37.1	58.8	inactive
18	SETMAR (GeneID 6419)	2	-0.375	77.1	59.4	inactive
19	SETMAR (GeneID 6419)	3	0.191	69.9	79.9	inactive
20	SETMAR (GeneID 6419)	4	-0.249	114	96.3	inactive
21	CARD9 (GeneID 64170)	1	-0.314	24.6	19.8	inactive
22	CARD9 (GeneID 64170)	2	0.865	32	58.3	inactive
23	CARD9 (GeneID 64170)	3	-0.283	75.3	61.9	inactive
24	CARD9 (GeneID 64170)	4	0.0474	90.9	93.9	inactive
25	SLC7A6 (GeneID 9057)	1	-0.196	96.6	84.3	inactive
26	SLC7A6 (GeneID 9057)	2	-0.266	38.6	32.1	inactive
27	SLC7A6 (GeneID 9057)	3	-0.116	92.7	85.5	inactive
28	DTYMK (GeneID 1841)	1	-0.378	110	84.6	inactive
29	DTYMK (GeneID 1841)	2	-0.0517	91.7	88.5	inactive
30	DTYMK (GeneID 1841)	3	-0.55	86.6	59.2	inactive
31	DTYMK (GeneID 1841)	4	-0.12	82.9	76.3	inactive

3 of these entries, reformatted.
CARD9 (GeneID 64170) #4 | log2 vehicle/camptothecin viability = 0.0474; viability with camptothecin (% of control) = 90.9; viability without drug (% of control) = 93.9; outcome = inactive
SLC7A6 (GeneID 9057) #1 | log2 vehicle/camptothecin viability = -0.196; viability with camptothecin (% of control) = 96.6; viability without drug (% of control) = 84.3; outcome = inactive
SLC7A6 (GeneID 9057) #2 | log2 vehicle/camptothecin viability = -0.266; viability with camptothecin (% of control) = 38.6; viability without drug (% of control) = 32.1; outcome = inactive
